Values from PubChem BioAssay AID504774 (Drosophila RNAi Screening Center, 2011).
The deposit covers about 23,000 reagents; shown is an unselected part of those that have a named target and a result. 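Values are quantile-normalised luminescence on an arbitrary scale; higher means more cells surviving MMS.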 The numbers tell different reagents against one gene apart. A plus sign joins genes that one reagent is predicted to hit. Further read-outs or replicates are left out here. Reagent sequences are not shown.

- Test: 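Knock-downs that shift viability of MMS-exposed cells relative to untreated ones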 (primary screen)
- Cells: Drosophila Kc167 cells
- Reagent: long dsRNA against Drosophila genes, about 0.25 µg dsRNA per well
- Duration: about 6 days: 3 days knock-down, then 3 days with or without MMS
- Challenge: methyl methanesulphonate 0.004% (w/v) for 3 days after knock-down
- Detection: 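ATP-dependent luminescence as a measure of live cells in MMS-exposed wells, quantile normalised within each plate, with replicate values also given as a mean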
- Reading the numbers: mean viability with MMS and viability with MMS: higher = more surviving cells after MMS

For Jon99Fii + Jon99Cii + Jon99Ciii + 1 more the deposit lists mean viability with MMS 3.69e6; viability with MMS, replicate 1 = 4.05e6.
Against Nagk (N-acetylglucosamine kinase) the deposit lists mean viability with MMS 3.55e6; viability with MMS, replicate 1 = 4.00e6.
Depletion of Srg1 (Sting-regulated gene 1) resulted in: mean viability with MMS 3.55e6; viability with MMS, replicate 1 = 4.08e6.
Knock-down of CG13578 came out at: mean viability with MMS 3.44e6; viability with MMS, replicate 1 = 3.80e6.
With knock-down of Myt1, the screen gave mean viability with MMS 3.32e6; viability with MMS, replicate 1 = 3.74e6.
Against Gss1 + Gss2 #1, the values are mean viability with MMS 3.72e6; viability with MMS, replicate 1 = 4.18e6.
Silencing of Gss1 + Gss2 #2 resulted in: mean viability with MMS 3.62e6; viability with MMS, replicate 1 = 4.08e6.
CG7044 showed mean viability with MMS 3.39e6; viability with MMS, replicate 1 = 3.95e6.
After knock-down of CG3088 the results were mean viability with MMS 3.43e6; viability with MMS, replicate 1 = 3.92e6.
CG12641 (retired record) #1 showed mean viability with MMS 3.21e6; viability with MMS, replicate 1 = 3.71e6.
CG12641 (retired record) #2 gave mean viability with MMS 3.56e6; viability with MMS, replicate 1 = 3.99e6.
After knock-down of CG13992 the results were mean viability with MMS 3.57e6; viability with MMS, replicate 1 = 4.07e6.

Reformatted: entries from further up.
| gene knocked down | reagent | mean viability with MMS | viability with MMS, replicate 1 |
| --- | --- | --- | --- |
| Nagk (N-acetylglucosamine kinase) | 1 | 3.55e6 | 4.00e6 |
| Srg1 (Sting-regulated gene 1) | 1 | 3.55e6 | 4.08e6 |
| CG13578 | 1 | 3.44e6 | 3.80e6 |
| Myt1 | 1 | 3.32e6 | 3.74e6 |
| Gss1 + Gss2 | 1 | 3.72e6 | 4.18e6 |
| Gss1 + Gss2 | 2 | 3.62e6 | 4.08e6 |

Further results:
Knock-down of Ugt302K1 (UDP-glycosyltransferase family 302 member K1) gave: mean viability with MMS 3.55e6; viability with MMS, replicate 1 = 4.08e6.
Depletion of Nepl19 (Neprilysin-like 19) came out at: mean viability with MMS 2.03e6; viability with MMS, replicate 1 = 4.18e6.
After knock-down of CG15143, the screen gave mean viability with MMS 3.43e6; viability with MMS, replicate 1 = 3.84e6.
Silencing of Cap-H2 (Chromosome associated protein H2) resulted in: mean viability with MMS 3.54e6; viability with MMS, replicate 1 = 3.92e6.
After knock-down of CG10301, the record shows mean viability with MMS 3.64e6; viability with MMS, replicate 1 = 4.15e6.
For Sln (Silnoon) the deposit lists mean viability with MMS 3.50e6; viability with MMS, replicate 1 = 4.01e6.
With knock-down of Zasp67 (Z band alternatively spliced PDZ-motif protein 67) the results were mean viability with MMS 3.68e6; viability with MMS, replicate 1 = 4.17e6.
Against CG13285, the entry reads mean viability with MMS 3.57e6; viability with MMS, replicate 1 = 4.19e6.
asf1 (anti-silencing factor 1) scored mean viability with MMS 3.43e6; viability with MMS, replicate 1 = 3.92e6.
RpL19 (Ribosomal protein L19) gave mean viability with MMS 2.28e6; viability with MMS, replicate 1 = 3.07e6.
With knock-down of Ir25a (Ionotropic receptor 25a), the record shows mean viability with MMS 3.55e6; viability with MMS, replicate 1 = 3.98e6.
For Swip-1 (Swiprosin-1) #1, the values are mean viability with MMS 3.58e6; viability with MMS, replicate 1 = 4.32e6.
Against Swip-1 (Swiprosin-1) #2, the values are mean viability with MMS 3.67e6; viability with MMS, replicate 1 = 4.15e6.
Depletion of TBPH (TAR DNA-binding protein-43 homolog) resulted in: mean viability with MMS 3.42e6; viability with MMS, replicate 1 = 3.88e6.
With knock-down of Wnt5 (Wnt oncogene analog 5), the screen gave mean viability with MMS 3.24e6; viability with MMS, replicate 1 = 3.58e6.
With knock-down of mRpL23 (mitochondrial ribosomal protein L23), the record shows mean viability with MMS 3.63e6; viability with MMS, replicate 1 = 4.17e6.
Against Kap3 (Kinesin associated protein 3) the deposit lists mean viability with MMS 3.46e6; viability with MMS, replicate 1 = 3.90e6.
Against CG6106 the deposit lists mean viability with MMS 3.51e6; viability with MMS, replicate 1 = 3.98e6.
For Fpgs2 (Folylpolyglutamate synthase 2) the deposit lists mean viability with MMS 3.68e6; viability with MMS, replicate 1 = 4.21e6.
Knock-down of CG15059 came out at: mean viability with MMS 3.57e6; viability with MMS, replicate 1 = 4.02e6.
For CG6154 the deposit lists mean viability with MMS 3.38e6; viability with MMS, replicate 1 = 3.71e6.
Against Got2 (Glutamate oxaloacetate transaminase 2), the entry reads mean viability with MMS 3.60e6; viability with MMS, replicate 1 = 4.02e6.
Against CG31213 #1, the values are mean viability with MMS 3.69e6; viability with MMS, replicate 1 = 4.25e6.
Silencing of CG31213 #2 gave: mean viability with MMS 3.57e6; viability with MMS, replicate 1 = 4.01e6.
